No constants are given. Whether binding was seen depends on the method and setting. A result given as binding can be weak or reduced; the word gives no strength. Where a sequence is shown, tags or fusion partners need not be part of it.

Assay [1] deals with coxsackievirus B3 protease 2A with C-terminal His6-tag (for biolayer interferometry) (coxsackievirus B3 (Nancy strain)). The assay is described as follows: BLI; competition: His-tagged 2A on Ni-NTA biosensors, 3-fold dilution series of actin peptide (40 nM to 10 µM) with SETD3 constant at 310 nM; 20 mM Tris/HCl pH 8.0, 150 mM NaCl, 5% glycerol, 1 mM DTT; maximum binding against peptide concentration; both purified.

Assay [2] has the same target. The assay is described as follows: BLI; competition: His-tagged 2A on Ni-NTA biosensors, 3-fold dilution series of actin peptide (40 nM to 10 µM) with SETD3 constant at 625 nM (620 nM in the methods); 20 mM Tris/HCl pH 8.0, 150 mM NaCl, 5% glycerol, 1 mM DTT; maximum binding against peptide concentration; both purified. Background: Biolayer interferometry detects binding as a change in optical thickness at a sensor tip.

B1: human SETD3, wild type (recombinant, tag cleaved) (enzyme, UniProt Q86TU7 1-594)
chain: MGKKSRVKTQKSGTGATATVSPKEILNLTSELLQKCSSPAPGPGKEWEEYVQIRTLVEKIRKKQKGLSVTFDGKREDYFPDLMKWASENGASVEGFEMVNFKEEGFGLRATRDIKAEELFLWVPRKLLMTVESAKNSVLGPLYSQDRILQAMGNIALAFHLLCERASPNSFWQPYIQTLPSEYDTPLYFEEDEVRYLQSTQAIHDVFSQYKNTARQYAYFYKVIQTHPHANKLPLKDSFTYEDYRWAVSSVMTRQNQIPTEDGSRVTLALIPLWDMCNHTNGLITTGYNLEDDRCECVALQDFRAGEQIYIFYGTRSNAEFVIHSGFFFDNNSHDRVKIKLGVSKSDRLYAMKAEVLARAGIPTSSVFALHFTEPPISAQLLAFLRVFCMTEEELKEHLLGDSAIDRIFTLGNSEFPVSWDNEVKLWTFLEDRASLLLKTYKTTIEEDKSVLKNHDLSVRAKMAIKLRLGEKEILEKAVKSAAVNREYYRQQMEEKAPLPKYEESNLGLLESSVGDSRLPLVLRNLEEEAGVQDALNIREAISKAKATENGLVNGENSIPNGTRSENESLNQESKRAVEDAKGSSSDSTAGVKE
As to B1, the binding result in assay [1] and in assay [2] was “binds” each time.

For the origin of these results see publication PMC9453702, “Structure-function analysis of enterovirus protease 2A in complex with its essential host factor SETD3” (Nature Communications, 2022).
